Assay results from doi:10.1101/2020.01.23.917252.
These are yes or no findings as the source states them, for the method shown. In cells and extracts the contact can be indirect. Some entries that bind do so weakly or less than the wild type.

Amino acid sequences for entries named in this document (tags omitted). A change or cut given only in a name is not applied to a line headed by its entry.
UniProt Q15286: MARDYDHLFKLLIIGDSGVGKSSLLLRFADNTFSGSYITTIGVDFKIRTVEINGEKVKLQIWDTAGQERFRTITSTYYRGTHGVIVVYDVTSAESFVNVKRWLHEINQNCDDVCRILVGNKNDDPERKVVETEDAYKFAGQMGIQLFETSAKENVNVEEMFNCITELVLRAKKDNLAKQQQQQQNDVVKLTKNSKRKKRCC
UniProt Q5S007: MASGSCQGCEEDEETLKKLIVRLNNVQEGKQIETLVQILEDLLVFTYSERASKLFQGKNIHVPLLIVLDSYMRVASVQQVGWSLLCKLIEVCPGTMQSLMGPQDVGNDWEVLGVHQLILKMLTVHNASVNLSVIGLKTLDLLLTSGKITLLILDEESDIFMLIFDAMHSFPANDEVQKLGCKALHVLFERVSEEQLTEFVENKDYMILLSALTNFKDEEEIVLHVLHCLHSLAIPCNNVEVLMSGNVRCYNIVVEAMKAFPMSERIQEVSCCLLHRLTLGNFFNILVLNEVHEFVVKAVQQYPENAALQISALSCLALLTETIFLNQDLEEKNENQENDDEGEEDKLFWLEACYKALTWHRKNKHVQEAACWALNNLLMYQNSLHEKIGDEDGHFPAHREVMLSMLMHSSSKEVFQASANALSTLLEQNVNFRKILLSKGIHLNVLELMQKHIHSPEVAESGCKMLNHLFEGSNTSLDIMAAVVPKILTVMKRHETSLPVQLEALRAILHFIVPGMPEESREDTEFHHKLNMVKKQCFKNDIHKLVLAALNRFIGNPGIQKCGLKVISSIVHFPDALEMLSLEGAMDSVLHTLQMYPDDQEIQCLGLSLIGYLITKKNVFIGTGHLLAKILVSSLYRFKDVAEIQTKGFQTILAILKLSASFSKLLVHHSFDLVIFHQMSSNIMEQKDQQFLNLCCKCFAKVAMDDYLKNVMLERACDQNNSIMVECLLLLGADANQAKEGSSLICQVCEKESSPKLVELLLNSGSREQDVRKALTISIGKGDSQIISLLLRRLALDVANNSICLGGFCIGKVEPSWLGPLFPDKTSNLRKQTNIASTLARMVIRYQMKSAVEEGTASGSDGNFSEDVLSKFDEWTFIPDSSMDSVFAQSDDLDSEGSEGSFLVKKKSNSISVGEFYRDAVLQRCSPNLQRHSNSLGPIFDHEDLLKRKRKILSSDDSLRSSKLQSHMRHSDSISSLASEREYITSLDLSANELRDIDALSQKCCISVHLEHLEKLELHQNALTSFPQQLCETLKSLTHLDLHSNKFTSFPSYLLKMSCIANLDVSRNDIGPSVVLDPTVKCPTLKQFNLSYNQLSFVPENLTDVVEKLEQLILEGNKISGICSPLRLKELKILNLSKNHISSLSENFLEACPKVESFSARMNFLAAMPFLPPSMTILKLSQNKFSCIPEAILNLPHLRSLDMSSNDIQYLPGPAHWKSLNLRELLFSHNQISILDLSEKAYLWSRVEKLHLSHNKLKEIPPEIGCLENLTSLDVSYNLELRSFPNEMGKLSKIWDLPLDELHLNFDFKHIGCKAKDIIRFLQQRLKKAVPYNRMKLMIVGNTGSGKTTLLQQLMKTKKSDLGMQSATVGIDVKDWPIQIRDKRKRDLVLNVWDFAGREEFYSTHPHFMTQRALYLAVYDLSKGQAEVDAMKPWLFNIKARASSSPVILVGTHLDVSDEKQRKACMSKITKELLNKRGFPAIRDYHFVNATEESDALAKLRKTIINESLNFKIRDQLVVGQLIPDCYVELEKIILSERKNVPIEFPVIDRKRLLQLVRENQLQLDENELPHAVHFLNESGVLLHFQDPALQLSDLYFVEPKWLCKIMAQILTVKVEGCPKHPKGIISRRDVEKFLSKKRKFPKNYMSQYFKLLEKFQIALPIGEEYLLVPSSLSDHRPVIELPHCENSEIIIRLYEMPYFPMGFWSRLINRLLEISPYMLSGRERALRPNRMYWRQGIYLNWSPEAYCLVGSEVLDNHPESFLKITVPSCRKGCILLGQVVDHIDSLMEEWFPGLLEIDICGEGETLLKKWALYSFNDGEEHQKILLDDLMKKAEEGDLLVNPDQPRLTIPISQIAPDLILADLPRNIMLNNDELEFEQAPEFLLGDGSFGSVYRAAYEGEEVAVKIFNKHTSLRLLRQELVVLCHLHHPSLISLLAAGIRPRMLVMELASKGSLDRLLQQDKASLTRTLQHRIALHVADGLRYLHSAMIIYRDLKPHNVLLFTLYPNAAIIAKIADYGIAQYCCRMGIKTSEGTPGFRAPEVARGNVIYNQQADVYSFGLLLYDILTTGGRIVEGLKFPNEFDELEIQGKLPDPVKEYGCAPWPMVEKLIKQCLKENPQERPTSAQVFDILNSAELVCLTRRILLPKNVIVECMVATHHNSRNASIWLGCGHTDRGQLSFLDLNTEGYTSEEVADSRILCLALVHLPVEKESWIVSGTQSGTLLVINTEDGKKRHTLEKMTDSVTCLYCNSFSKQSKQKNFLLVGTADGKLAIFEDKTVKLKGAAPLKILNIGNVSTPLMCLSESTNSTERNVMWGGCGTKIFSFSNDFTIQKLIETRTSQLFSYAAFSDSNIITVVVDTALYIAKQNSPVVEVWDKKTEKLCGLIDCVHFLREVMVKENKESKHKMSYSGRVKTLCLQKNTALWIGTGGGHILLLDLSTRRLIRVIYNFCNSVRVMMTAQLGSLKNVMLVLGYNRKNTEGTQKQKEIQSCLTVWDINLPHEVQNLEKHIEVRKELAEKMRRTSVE
UniProt P61026: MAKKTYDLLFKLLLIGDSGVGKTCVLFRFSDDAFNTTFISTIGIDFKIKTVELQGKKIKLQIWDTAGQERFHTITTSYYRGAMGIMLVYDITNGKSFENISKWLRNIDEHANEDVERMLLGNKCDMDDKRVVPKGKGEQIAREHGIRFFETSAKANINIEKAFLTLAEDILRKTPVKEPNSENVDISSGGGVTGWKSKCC

How the values were obtained:
Experiment in all cases: co-IP
2xmyc-RAB35-WT = 2xmyc-RAB35-WT (UniProt Q15286)
3xflag-LRRK2 = 3xflag-LRRK2 (UniProt Q5S007)
2xmyc-RAB10-WT = 2xmyc-RAB10-WT (UniProt P61026)
2xmyc-RAB10-T73A = 2xmyc-RAB10-T73A (UniProt P61026)

B1: JIP4 (C-Jun-amino-terminal kinase-interacting protein 4) (protein, UniProt O60271 1-1321)
chain: MELEDGVVYQEEPGGSGAVMSERVSGLAGSIYREFERLIGRYDEEVVKELMPLVVAVLENLDSVFAQDQEHQVELELLRDDNEQLITQYEREKALRKHAEEKFIEFEDSQEQEKKDLQTRVESLESQTRQLELKAKNYADQISRLEEREAELKKEYNALHQRHTEMIHNYMEHLERTKLHQLSGSDQLESTAHSRIRKERPISLGIFPLPAGDGLLTPDAQKGGETPGSEQWKFQELSQPRSHTSLKVSNSPEPQKAVEQEDELSDVSQGGSKATTPASTANSDVATIPTDTPLKEENEGFVKVTDAPNKSEISKHIEVQVAQETRNVSTGSAENEEKSEVQAIIESTPELDMDKDLSGYKGSSTPTKGIENKAFDRNTESLFEELSSAGSGLIGDVDEGADLLGMGREVENLILENTQLLETKNALNIVKNDLIAKVDELTCEKDVLQGELEAVKQAKLKLEEKNRELEEELRKARAEAEDARQKAKDDDDSDIPTAQRKRFTRVEMARVLMERNQYKERLMELQEAVRWTEMIRASRENPAMQEKKRSSIWQFFSRLFSSSSNTTKKPEPPVNLKYNAPTSHVTPSVKKRSSTLSQLPGDKSKAFDFLSEETEASLASRREQKREQYRQVKAHVQKEDGRVQAFGWSLPQKYKQVTNGQGENKMKNLPVPVYLRPLDEKDTSMKLWCAVGVNLSGGKTRDGGSVVGASVFYKDVAGLDTEGSKQRSASQSSLDKLDQELKEQQKELKNQEELSSLVWICTSTHSATKVLIIDAVQPGNILDSFTVCNSHVLCIASVPGARETDYPAGEDLSESGQVDKASLCGSMTSNSSAETDSLLGGITVVGCSAEGVTGAATSPSTNGASPVMDKPPEMEAENSEVDENVPTAEEATEATEGNAGSAEDTVDISQTGVYTEHVFTDPLGVQIPEDLSPVYQSSNDSDAYKDQISVLPNEQDLVREEAQKMSSLLPTMWLGAQNGCLYVHSSVAQWRKCLHSIKLKDSILSIVHVKGIVLVALADGTLAIFHRGVDGQWDLSNYHLLDLGRPHHSIRCMTVVHDKVWCGYRNKIYVVQPKAMKIEKSFDAHPRKESQVRQLAWVGDGVWVSIRLDSTLRLYHAHTYQHLQDVDIEPYVSKMLGTGKLGFSFVRITALMVSCNRLWVGTGNGVIISIPLTETNKTSGVPGNRPGSVIRVYGDENSDKVTPGTFIPYCSMAHAQLCFHGHRDAVKFFVAVPGQVISPQSSSSGTDLTGDKAGPSAQEPGSQTPLKSMLVISGGEGYIDFRMGDEGGESELLGEDLPLEPSVTKAERSHLIVWQVMYGNE
binding (2xmyc-RAB35-WT): no binding
binding (3xflag-LRRK2): binds
binding (2xmyc-RAB10-WT): binds
binding (2xmyc-RAB10-T73A): no binding
